According to PubChem BioAssay AID248 (DTP/NCI, 2004):
The list shows only some results of the screen, not a fair sample: it is rich in T/C values a quarter to a half above the control, in often repeated tests (any T/C) and in doses without a T/C. Further doses and runs are listed elsewhere. T/C: endpoint of the treated group in % of that of the vehicle group. Some doses have a count of surviving animals in place of a T/C: the source holds a T/C of zero for them, seemingly a mark for toxic or unscored doses. Some survivor counts are full or nearly so, which does not show that the dose was tolerated: survival well below the control is almost never listed, so the zero probably covers shortened survival too. Survivors were counted at the toxicity check, usually on the fifth day, unless a day is given; later deaths do not show. Schedule codes are those of the source, read here as Q, the interval in days (D) or hours (H), X, the number of doses. Some schedules carry Z or #; the key to these is not given. Where survival is the endpoint, the PubChem record calls one and a half times the control and up active, and a quarter to a half above the control has no call in these data; cut-offs in other NCI protocols can differ. Some entries hold several experiments; their values stand side by side, smallest first.

Tested on: L1210 leukemia ip in BDF1 mice, survival T/C
Test: NCI In Vivo Anticancer Drug Screen. Data for tumor model L1210 Leukemia (intraperitoneal) in B6D2F1 (BDF1) mice
Details: T/C endpoint: mean survival time, higher T/C = longer survival
[1] = dose: 100.0 mg/kg/injection, schedule: Q01DX001 (ip), vehicle: carboxymethylcellulose (CMC)
[2] = dose: 150.0 mg/kg/injection, schedule: Q01DX001 (ip), vehicle: saline
[3] = dose: 300.0 mg/kg/injection, schedule: Q01DX001 (ip), vehicle: saline
[4] = dose: 400.0 mg/kg/injection, schedule: Q04DX003 (ip), vehicle: acetone
[5] = dose: 400.0 mg/kg/injection, schedule: Q04DX003 (ip), vehicle: saline
[6] = dose: 400.0 mg/kg/injection, schedule: Q04DX002 (ip), vehicle: Klucel (hydroxypropylcellulose) (HPC)
[7] = dose: 400.0 mg/kg/injection, schedule: Q01DX001 (ip), vehicle: carboxymethylcellulose (CMC)
[8] = dose: 200.0 mg/kg/injection, schedule: Q01DX001 (ip), vehicle: saline
[9] = dose: 400.0 mg/kg/injection, schedule: Q01DX009 (ip), vehicle: saline with Tween-80
[10] = dose: 400.0 mg/kg/injection, schedule: Q01DX001 (ip), vehicle: saline
[11] = dose: 200.0 mg/kg/injection, schedule: Q01DX009 (ip), vehicle: saline
[12] = dose: 200.0 mg/kg/injection, schedule: Q01DX009 (ip), vehicle: saline with Tween-80
[13] = dose: 100.0 mg/kg/injection, schedule: Q04DX003 (ip), vehicle: saline with Tween-80
[14] = dose: 200.0 mg/kg/injection, schedule: Q04DX003 (ip), vehicle: saline with Tween-80
[15] = dose: 400.0 mg/kg/injection, schedule: Q04DX003 (ip), vehicle: saline with Tween-80

## Clc1cc2c(cc1CO/N=C\c1ccc3c(c1)OCO3)OCO2
dose: 400.0 mg/kg/injection, schedule: Q04DX003 (ip), vehicle: saline sonified
  survivor count: 6 of 6

## Oc1ccc(N=Nc2ccccc2)c(O)c1.Oc1ccc(N=Nc2ccccc2)c(O)c1.[Cu]
[1]
  survivor count: 4 of 4
dose: 200.0 mg/kg/injection, schedule: Q01DX001 (ip), vehicle: carboxymethylcellulose (CMC)
  survivor count: 4 of 4

## COc1ccc2c(c1O)C13C=C(C)C(=O)CC1C(C2)N(C)CC3 (stereo unspecified)
[2]
  survivor count: 2 of 6
[3]
  survivor count: 0 of 6

## c1ccc(C2(c3ccccc3)CN3CCOC3=N2)cc1
dose: 100.0 mg/kg/injection, schedule: Q04DX003 (ip), vehicle: acetone
  survivor count: 1 of 6
dose: 200.0 mg/kg/injection, schedule: Q04DX003 (ip), vehicle: acetone
  survivor count: 0 of 6
[4]
  survivor count: 0 of 6

## C[S+](C)CC(=O)c1ccccc1
[5]
  survivor count: 1 of 6

## c1ccc(-c2nc(N3CCOCC3)nc3ccccc23)cc1
dose: 50.0 mg/kg/injection, schedule: Q01DX009 (ip), vehicle: saline with Tween-80
  survivor count: 6 of 6

## Cc1cccc(NC(=O)c2c(Cl)c(Cl)c(Cl)c(Cl)c2C(=O)O)c1C
[6]
  survivor count: 3 of 3

## COc1cc(C)cc(C(=O)O)c1O
[1]
  survivor count: 4 of 4
[7]
  survivor count: 4 of 4

## Oc1c(CN2CCCC2)cc(Nc2nccc(/C=C/c3ccc(Cl)cc3)n2)cc1CN1CCCC1
[8]
  survivor count: 2 of 6

## NS(=O)(=O)c1cc[n+]([O-])c2ccccc12
[9]
  survivor count: 3 of 6

## Nc1ccc2c(c1)C(=NO)c1cc(N)ccc1-2
[7]
  survivor count: 2 of 4

## O=C(O)C1=CC2C=C(Cl)C=CC2OC1=O (stereo unspecified)
[10]
  survivor count: 0 of 6

## O=C(O)c1cccc2ccccc12
[9]
  survivor count: 0 of 6

## Cc1nnnn1C1CCCCC1I (stereo unspecified)
dose: 40.0 mg/kg/injection, schedule: Q01DX001 (ip), vehicle: other
  survivor count: 0 of 6
dose: 75.0 mg/kg/injection, schedule: Q01DX001 (ip), vehicle: other
  survivor count: 0 of 6
dose: 150.0 mg/kg/injection, schedule: Q01DX001 (ip), vehicle: other
  survivor count: 0 of 6
dose: 300.0 mg/kg/injection, schedule: Q01DX001 (ip), vehicle: other
  survivor count: 0 of 6

## COP(=O)(O)Oc1ccccc1
dose: 350.0 mg/kg/injection, schedule: Q01DX009 (ip), vehicle: saline with Tween-80
  survivor count: 0 of 6

## O=C(CCl)c1ccc2c(c1)Nc1ccccc1S2
[1]
  survivor count: 2 of 4

## BrCCOC1CCCCO1 (stereo unspecified)
dose: 400.0 mg/kg/injection, schedule: Q01DX005 (ip), vehicle: saline
  survivor count: 0 of 4

## CN(C)Cc1ccccc1COC(=O)c1cccc(Br)c1
[6]
  survivor count: 2 of 3

## c1ccc(-c2c[nH]c(-c3ccccc3)c2)cc1
dose: 100.0 mg/kg/injection, schedule: Q01DX001 (ip), vehicle: steroid suspending solution
  survivor count: 6 of 6

## O=C(Nc1cc(C(F)(F)F)ccc1Cl)Oc1ccc(Cl)cc1Cc1ccccc1
dose: 50.0 mg/kg/injection, schedule: Q01DX009 (ip), vehicle: Klucel (hydroxypropylcellulose) (HPC)
  survivor count: 6 of 6
dose: 200.0 mg/kg/injection, schedule: Q01DX009 (ip), vehicle: Klucel (hydroxypropylcellulose) (HPC)
  survivor count: 2 of 6
dose: 400.0 mg/kg/injection, schedule: Q01DX009 (ip), vehicle: Klucel (hydroxypropylcellulose) (HPC)
  survivor count: 2 of 6

## Cc1ccc(C(SCC(N)C(=O)O)(c2ccc(C)cc2)c2ccc(C)cc2)cc1 (stereo unspecified)
dose: 11.0 mg/kg/injection, schedule: Q01DX009 (ip), vehicle: saline
  T/C: 133 % of control
dose: 16.0 mg/kg/injection, schedule: Q01DX009 (ip), vehicle: saline
  T/C: 136 % of control
dose: 25.0 mg/kg/injection, schedule: Q01DX009 (ip), vehicle: saline
  T/C: 134 and 142 % of control
dose: 50.0 mg/kg/injection, schedule: Q01DX009 (ip), vehicle: saline
  T/C: 138 % of control
dose: 100.0 mg/kg/injection, schedule: Q01DX009 (ip), vehicle: other
  T/C: 141 % of control
dose: 100.0 mg/kg/injection, schedule: Q01DX009 (ip), vehicle: saline
  T/C: 145 % of control
dose: 200.0 mg/kg/injection, schedule: Q01DX009 (ip), vehicle: other
  T/C: 143 % of control
[11]
  survivor count: 6 of 6
dose: 400.0 mg/kg/injection, schedule: Q01DX009 (ip), vehicle: saline
  survivor count: 6 of 6

## Cc1c([N+](=O)[O-])cc(C(=O)Cl)cc1[N+](=O)[O-]
dose: 400.0 mg/kg/injection, schedule: Q04DX003 (ip), vehicle: other
  survivor count: 0 of 6

## BrC1(Br)C2CC/C=C\CCC21 (stereo unspecified)
[12]
  survivor count: 0 of 3

## N=C(N)c1ncn(C2CCCC2)c1N
[3]
  survivor count: 0 of 6

## C1CCC2CCCN2CC1 (stereo unspecified)
[13]
  survivor count: 1 of 6
[14]
  survivor count: 0 of 6
[15]
  survivor count: 0 of 6

## CCCn1cnc2c(=S)nc[nH]c21
dose: 100.0 mg/kg/injection, schedule: Q01DX Z (ip), vehicle: carboxymethylcellulose (CMC)
  T/C: 135 % of control

## CC1NC1(c1ccccc1)[n+]1ccccc1 (stereo unspecified)
[11]
  survivor count: 0 of 6
[5]
  survivor count: 0 of 6

## O=C(O)c1ccc2ccc3cccnc3c2n1
[15]
  survivor count: 1 of 4

## CCCCN(C)N=Nc1ccc(CCC(=O)NN)cc1
dose: 22.0 mg/kg/injection, schedule: Q01DX009 (ip), vehicle: carboxymethylcellulose (CMC)
  survivor count: 6 of 6

## CCCCOc1cc(C(=O)NCCN(CC)CC)c2ccccc2n1
[13]
  survivor count: 0 of 6
[14]
  survivor count: 0 of 6
[15]
  survivor count: 0 of 6

## Cc1cccc(C(=O)OCc2ccccc2CN2CCCC2)c1
dose: 400.0 mg/kg/injection, schedule: Q04DX002 (ip), vehicle: saline
  survivor count: 1 of 3

## COc1cccc(C2NC(=O)N3C(c4cccc(OC)c4)NC(=O)N23)c1 (stereo unspecified)
dose: 400.0 mg/kg/injection, schedule: Q04DX003 (ip), vehicle: gum acacia
  survivor count: 6 of 6

## Cc1ccc(NC(=O)c2ccc(C(=O)Nc3ccc(C)cc3)cc2)cc1
dose: 112.0 mg/kg/injection, schedule: Q01DX Z (ip), vehicle: carboxymethylcellulose (CMC)
  survivor count: 6 of 6
dose: 450.0 mg/kg/injection, schedule: Q01DX Z (ip), vehicle: carboxymethylcellulose (CMC)
  survivor count: 6 of 6

## Cc1ccc(C(c2ccccc2)c2ccccc2)cc1C
[8]
  survivor count: 6 of 6

## O=C/C=C/c1cccc([N+](=O)[O-])c1
[10]
  survivor count: 1 of 4

## COc1ccc(-c2sc(/N=C/c3cc(Br)cc(Br)c3O)c(C#N)c2C)cc1OC
dose: 400.0 mg/kg/injection, schedule: Q01DX001 (ip), vehicle: saline with Tween-80
  survivor count: 6 of 6

## O=C(Nc1cccc(Cl)c1)Oc1ccc(S(=O)(=O)F)cc1Cl
dose: 400.0 mg/kg/injection, schedule: Q04DX002 (ip), vehicle: saline with Tween-80
  survivor count: 0 of 3

## CC(C)=CCC/C(C)=C\CC1=C(O)c2ccccc2C(=O)C1=O
dose: 400.0 mg/kg/injection, schedule: Q01DX001 (ip), vehicle: water
  survivor count: 0 of 6
[4]
  survivor count: 0 of 6

## CCCc1c(OCC)c(OC)c2c3c(c(-c4c(C)cc5c(CCC)c(OCC)c(OC)c6c5c4OC6NNc4ccccc4)c(C)cc13)OC2NNc1ccccc1 (stereo unspecified)
dose: 75.0 mg/kg/injection, schedule: Q04DX003 (ip), vehicle: Klucel (hydroxypropylcellulose) (HPC)
  survivor count: 6 of 6
dose: 150.0 mg/kg/injection, schedule: Q04DX003 (ip), vehicle: Klucel (hydroxypropylcellulose) (HPC)
  survivor count: 6 of 6

## CCSC(=N)N=Nc1ccc(O)cc1
[10]
  survivor count: 0 of 4

## Br/C=C(\Br)C[N+]12CN3CN(CN(C3)C1)C2
[12]
  survivor count: 6 of 6
[9]
  survivor count: 0 of 6

## NC(=O)c1cc2ccccc2[n+](Cc2ccc(F)cc2)c1
[2]
  survivor count: 2 of 6
[3]
  survivor count: 1 of 6

## C[CH2][Sn]([Cl])([Cl])[CH2]C.Oc1ccccc1C=NCCN=Cc1ccccc1O
dose: 20.0 mg/kg/injection, schedule: Q01DX009 (ip), vehicle: saline with Tween-80
  survivor count: 2 of 6
